The results in this text go back to PMC6310259.

Results are given in words; binding and its absence hold for the method and conditions named. Binding calls can cover weak binding; strength is not graded here. Sequences can lack the tags named with a protein.

The target of the assay is T1, NPR2, yeast two-hybrid fusion (Arabidopsis thaliana) (UniProt Q9SZI3).
T1 sequence: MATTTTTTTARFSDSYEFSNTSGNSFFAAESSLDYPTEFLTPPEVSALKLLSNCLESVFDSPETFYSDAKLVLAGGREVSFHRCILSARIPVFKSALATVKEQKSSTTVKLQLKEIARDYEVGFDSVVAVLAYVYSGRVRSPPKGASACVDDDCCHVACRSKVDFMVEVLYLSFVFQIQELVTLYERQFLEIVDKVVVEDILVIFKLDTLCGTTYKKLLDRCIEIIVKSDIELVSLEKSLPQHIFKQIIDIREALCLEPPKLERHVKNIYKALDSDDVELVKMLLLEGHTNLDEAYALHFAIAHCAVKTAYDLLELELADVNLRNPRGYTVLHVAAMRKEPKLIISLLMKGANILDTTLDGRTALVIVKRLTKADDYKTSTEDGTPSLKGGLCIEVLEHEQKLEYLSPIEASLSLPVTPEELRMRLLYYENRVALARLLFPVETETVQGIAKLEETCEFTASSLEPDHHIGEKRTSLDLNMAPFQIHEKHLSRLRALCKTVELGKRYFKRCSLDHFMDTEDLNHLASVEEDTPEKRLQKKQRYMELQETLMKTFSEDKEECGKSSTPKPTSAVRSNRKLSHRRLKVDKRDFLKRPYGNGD
Description: two-hybrid; yeast with one cDNA in pDEST22 and one in pDEST32; growth on -His with 100 μM SA or 100 μM HBA, without 3AT (Fig 4b).

Turning to “β carbonic anhydrase 3 (CA3), yeast two-hybrid fusion (Arabidopsis thaliana)”, the binding result was “no binding”.
Regarding “β carbonic anhydrase 1 (βCA1f), yeast two-hybrid fusion (Arabidopsis thaliana)”, the binding entry is “binds”.
